According to patent US11247980B2, “Herbicidal uracilpyrid” (BASF SE, priority 2017, dated 2022):
Some entries share one result that the patent states for a list of compounds.

Columns and labels:
Experiment in all cases: greenhouse experiments, herbicidal activity, post-emergence treatment
Settings in all cases: application rate of 16 g/ha, post-emergence method, scale from 0 to 100
[1] = system: AMARE; assay type: in vivo, Amaranthus retroflexus
[2] = system: SETVI; assay type: in vivo, Setaria viridis
[3] = system: CHEAL; assay type: in vivo, Chenopodium album
[4] = system: ECHCG; assay type: in vivo, Echinocloa crus-galli

CCOC(=O)COC(=O)COc1ccccc1Oc1nc(-n2c(=O)cc(C(F)(F)F)n(C)c2=O)c(F)cc1Cl [compound 79]
herbicidal activity against AMARE [1]: very good herbicidal activity (a very good herbicidal activity is given at values of at least 85) | herbicidal activity against SETVI [2]: very good herbicidal activity (a very good herbicidal activity is given at values of at least 85) | herbicidal activity against CHEAL [3]: very good herbicidal activity (a very good herbicidal activity is given at values of at least 85) | herbicidal activity against ECHCG [4]: very good herbicidal activity (a very good herbicidal activity is given at values of at least 85)

CC(C)OC(=O)COC(=O)COc1ccccc1Oc1nc(-n2c(=O)cc(C(F)(F)F)n(C)c2=O)c(F)cc1Cl [compound 80]
herbicidal activity against AMARE [1]: very good herbicidal activity (a very good herbicidal activity is given at values of at least 85) | herbicidal activity against SETVI [2]: very good herbicidal activity (a very good herbicidal activity is given at values of at least 85) | herbicidal activity against CHEAL [3]: very good herbicidal activity (a very good herbicidal activity is given at values of at least 85) | herbicidal activity against ECHCG [4]: very good herbicidal activity (a very good herbicidal activity is given at values of at least 85)

Cn1c(C(F)(F)F)cc(=O)n(-c2nc(Oc3ccccc3OCC(=O)NO)c(Cl)cc2F)c1=O [compound 83]
herbicidal activity against AMARE [1]: very good herbicidal activity (a very good herbicidal activity is given at values of at least 85) | herbicidal activity against SETVI [2]: very good herbicidal activity (a very good herbicidal activity is given at values of at least 85) | herbicidal activity against CHEAL [3]: very good herbicidal activity (a very good herbicidal activity is given at values of at least 85) | herbicidal activity against ECHCG [4]: very good herbicidal activity (a very good herbicidal activity is given at values of at least 85)

CONC(=O)COc1ccccc1Oc1nc(-n2c(=O)cc(C(F)(F)F)n(C)c2=O)c(F)cc1Cl [compound 84]
herbicidal activity against AMARE [1]: very good herbicidal activity (a very good herbicidal activity is given at values of at least 85) | herbicidal activity against SETVI [2]: very good herbicidal activity (a very good herbicidal activity is given at values of at least 85) | herbicidal activity against CHEAL [3]: very good herbicidal activity (a very good herbicidal activity is given at values of at least 85) | herbicidal activity against ECHCG [4]: very good herbicidal activity (a very good herbicidal activity is given at values of at least 85)

CON(C)C(=O)COc1ccccc1Oc1nc(-n2c(=O)cc(C(F)(F)F)n(C)c2=O)c(F)cc1Cl [compound 85]
herbicidal activity against AMARE [1]: very good herbicidal activity (a very good herbicidal activity is given at values of at least 85) | herbicidal activity against SETVI [2]: very good herbicidal activity (a very good herbicidal activity is given at values of at least 85) | herbicidal activity against CHEAL [3]: very good herbicidal activity (a very good herbicidal activity is given at values of at least 85) | herbicidal activity against ECHCG [4]: very good herbicidal activity (a very good herbicidal activity is given at values of at least 85)

C#CCNC(=O)COc1ccccc1Oc1nc(-n2c(=O)cc(C(F)(F)F)n(C)c2=O)c(F)cc1Cl [compound 86]
herbicidal activity against AMARE [1]: very good herbicidal activity (a very good herbicidal activity is given at values of at least 85) | herbicidal activity against SETVI [2]: very good herbicidal activity (a very good herbicidal activity is given at values of at least 85) | herbicidal activity against CHEAL [3]: very good herbicidal activity (a very good herbicidal activity is given at values of at least 85) | herbicidal activity against ECHCG [4]: very good herbicidal activity (a very good herbicidal activity is given at values of at least 85)

CN(C)S(=O)(=O)NC(=O)COc1ccccc1Oc1nc(-n2c(=O)cc(C(F)(F)F)n(C)c2=O)c(F)cc1Cl [compound 89]
herbicidal activity against AMARE [1]: very good herbicidal activity (a very good herbicidal activity is given at values of at least 85) | herbicidal activity against SETVI [2]: very good herbicidal activity (a very good herbicidal activity is given at values of at least 85) | herbicidal activity against CHEAL [3]: very good herbicidal activity (a very good herbicidal activity is given at values of at least 85) | herbicidal activity against ECHCG [4]: very good herbicidal activity (a very good herbicidal activity is given at values of at least 85)

Cn1c(C(F)(F)F)cc(=O)n(-c2nc(Oc3cccnc3OCC(=O)O)c(Cl)cc2F)c1=O [compound 91]
herbicidal activity against AMARE [1]: very good herbicidal activity (a very good herbicidal activity is given at values of at least 85) | herbicidal activity against SETVI [2]: very good herbicidal activity (a very good herbicidal activity is given at values of at least 85) | herbicidal activity against CHEAL [3]: very good herbicidal activity (a very good herbicidal activity is given at values of at least 85) | herbicidal activity against ECHCG [4]: very good herbicidal activity (a very good herbicidal activity is given at values of at least 85)

CCOC(=O)COc1ncccc1Oc1nc(-n2c(=O)c(C)c(C(F)(F)F)n(C)c2=O)c(F)cc1Cl [compound 97]
herbicidal activity against AMARE [1]: very good herbicidal activity (a very good herbicidal activity is given at values of at least 85) | herbicidal activity against SETVI [2]: very good herbicidal activity (a very good herbicidal activity is given at values of at least 85) | herbicidal activity against CHEAL [3]: very good herbicidal activity (a very good herbicidal activity is given at values of at least 85) | herbicidal activity against ECHCG [4]: very good herbicidal activity (a very good herbicidal activity is given at values of at least 85)

C#CCOC(=O)COc1ncccc1Oc1nc(-n2c(=O)cc(C(F)(F)F)n(C)c2=O)c(F)cc1Cl [compound 125]
herbicidal activity against AMARE [1]: very good herbicidal activity (a very good herbicidal activity is given at values of at least 85) | herbicidal activity against SETVI [2]: very good herbicidal activity (a very good herbicidal activity is given at values of at least 85) | herbicidal activity against CHEAL [3]: very good herbicidal activity (a very good herbicidal activity is given at values of at least 85) | herbicidal activity against ECHCG [4]: very good herbicidal activity (a very good herbicidal activity is given at values of at least 85)

C=CCOC(=O)COc1ncccc1Oc1nc(-n2c(=O)cc(C(F)(F)F)n(C)c2=O)c(F)cc1Cl [compound 126]
herbicidal activity against AMARE [1]: very good herbicidal activity (a very good herbicidal activity is given at values of at least 85) | herbicidal activity against SETVI [2]: very good herbicidal activity (a very good herbicidal activity is given at values of at least 85) | herbicidal activity against CHEAL [3]: very good herbicidal activity (a very good herbicidal activity is given at values of at least 85) | herbicidal activity against ECHCG [4]: very good herbicidal activity (a very good herbicidal activity is given at values of at least 85)

C=C(C)COC(=O)COc1ncccc1Oc1nc(-n2c(=O)cc(C(F)(F)F)n(C)c2=O)c(F)cc1Cl [compound 128]
herbicidal activity against AMARE [1]: very good herbicidal activity (a very good herbicidal activity is given at values of at least 85) | herbicidal activity against SETVI [2]: very good herbicidal activity (a very good herbicidal activity is given at values of at least 85) | herbicidal activity against CHEAL [3]: very good herbicidal activity (a very good herbicidal activity is given at values of at least 85) | herbicidal activity against ECHCG [4]: very good herbicidal activity (a very good herbicidal activity is given at values of at least 85)

CCCOC(=O)COc1ncccc1Oc1nc(-n2c(=O)cc(C(F)(F)F)n(C)c2=O)c(F)cc1Cl [compound 129]
herbicidal activity against AMARE [1]: very good herbicidal activity (a very good herbicidal activity is given at values of at least 85) | herbicidal activity against SETVI [2]: very good herbicidal activity (a very good herbicidal activity is given at values of at least 85) | herbicidal activity against CHEAL [3]: very good herbicidal activity (a very good herbicidal activity is given at values of at least 85) | herbicidal activity against ECHCG [4]: very good herbicidal activity (a very good herbicidal activity is given at values of at least 85)

CC(C)OC(=O)COc1ncccc1Oc1nc(-n2c(=O)cc(C(F)(F)F)n(C)c2=O)c(F)cc1Cl [compound 130]
herbicidal activity against AMARE [1]: very good herbicidal activity (a very good herbicidal activity is given at values of at least 85) | herbicidal activity against SETVI [2]: very good herbicidal activity (a very good herbicidal activity is given at values of at least 85) | herbicidal activity against CHEAL [3]: very good herbicidal activity (a very good herbicidal activity is given at values of at least 85) | herbicidal activity against ECHCG [4]: very good herbicidal activity (a very good herbicidal activity is given at values of at least 85)

CC(C)COC(=O)COc1ncccc1Oc1nc(-n2c(=O)cc(C(F)(F)F)n(C)c2=O)c(F)cc1Cl [compound 132]
herbicidal activity against AMARE [1]: very good herbicidal activity (a very good herbicidal activity is given at values of at least 85) | herbicidal activity against SETVI [2]: very good herbicidal activity (a very good herbicidal activity is given at values of at least 85) | herbicidal activity against CHEAL [3]: very good herbicidal activity (a very good herbicidal activity is given at values of at least 85) | herbicidal activity against ECHCG [4]: very good herbicidal activity (a very good herbicidal activity is given at values of at least 85)

Cn1c(C(F)(F)F)cc(=O)n(-c2nc(Oc3cccnc3OCC(=O)OCC(F)F)c(Cl)cc2F)c1=O [compound 135]
herbicidal activity against AMARE [1]: very good herbicidal activity (a very good herbicidal activity is given at values of at least 85) | herbicidal activity against SETVI [2]: very good herbicidal activity (a very good herbicidal activity is given at values of at least 85) | herbicidal activity against CHEAL [3]: very good herbicidal activity (a very good herbicidal activity is given at values of at least 85) | herbicidal activity against ECHCG [4]: very good herbicidal activity (a very good herbicidal activity is given at values of at least 85)

Cn1c(C(F)(F)F)cc(=O)n(-c2nc(Oc3cccnc3OCC(=O)OCC3CC3)c(Cl)cc2F)c1=O [compound 143]
herbicidal activity against AMARE [1]: very good herbicidal activity (a very good herbicidal activity is given at values of at least 85) | herbicidal activity against SETVI [2]: very good herbicidal activity (a very good herbicidal activity is given at values of at least 85) | herbicidal activity against CHEAL [3]: very good herbicidal activity (a very good herbicidal activity is given at values of at least 85) | herbicidal activity against ECHCG [4]: very good herbicidal activity (a very good herbicidal activity is given at values of at least 85)
